LdMetRS: 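Primary screen of methionyl-tRNA synthetase; the read-out is not stated. Target: Methionyl-tRNA synthetase (putative), Leishmania donovani (UniProt E9BF75). The test concentration is not given. Values are per cent inhibition. Size under these conditions: about 68,000 compounds, about 24 of them at 50% or above in at least one test.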
Mtb heat-shock: 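Assay on Mycobacterium tuberculosis, filed only as a heat shock assay from Cornell; the read-out is not stated. The concentration is filed as 10 mM, unlikely as a test dose, so the dose is not known. Higher reads as stronger inhibition (inferred: compounds with an IC50 in retests scored well above the rest). Size under these conditions: about 69,000 compounds, about 930 of them at 50% or above in at least one test.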

Sequences of proteins named here, by UniProt entry; tags and fusion partners are left off.
UniProt E9BF75, entry or part of it: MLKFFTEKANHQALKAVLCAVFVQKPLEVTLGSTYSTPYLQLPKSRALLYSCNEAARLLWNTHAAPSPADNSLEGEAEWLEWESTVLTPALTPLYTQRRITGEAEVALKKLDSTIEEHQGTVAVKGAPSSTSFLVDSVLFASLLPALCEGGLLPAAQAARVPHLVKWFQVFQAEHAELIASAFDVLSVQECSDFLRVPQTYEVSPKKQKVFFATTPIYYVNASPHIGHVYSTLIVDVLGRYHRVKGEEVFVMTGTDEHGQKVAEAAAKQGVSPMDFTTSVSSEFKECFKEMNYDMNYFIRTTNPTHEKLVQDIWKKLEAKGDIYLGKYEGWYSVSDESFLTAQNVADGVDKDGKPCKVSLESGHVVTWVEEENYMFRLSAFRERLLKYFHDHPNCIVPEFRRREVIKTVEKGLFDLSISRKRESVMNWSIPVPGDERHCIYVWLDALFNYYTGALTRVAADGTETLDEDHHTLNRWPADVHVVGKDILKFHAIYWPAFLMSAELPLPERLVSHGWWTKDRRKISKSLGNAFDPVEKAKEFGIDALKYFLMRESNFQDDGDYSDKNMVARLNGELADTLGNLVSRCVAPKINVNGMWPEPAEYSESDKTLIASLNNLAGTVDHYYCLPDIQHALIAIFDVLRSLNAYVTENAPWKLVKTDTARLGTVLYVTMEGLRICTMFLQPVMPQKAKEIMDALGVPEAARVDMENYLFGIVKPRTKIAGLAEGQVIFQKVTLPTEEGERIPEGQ

Results are percentages, as filed.
The controls that fix the scale are not given in the record; negative values are as filed.
The compounds are a random part of those screened.

With [H][C@@]12CN(CC(C)C)C[C@]1([H])C(=O)NC21CCN(C(=O)c2cccnc2)CC1 the screen gave Mtb heat-shock: 12.93%. For Cc1ccc(N2CCCC(N3CCC4(CC3)OCCO4)C2=O)cc1 (stereo not given) the result was LdMetRS: 13.13%; Mtb heat-shock: -1.14%. Cc1cc(N(C)C)nc(C2(C)CCCN2C(=O)c2ccn(C)n2)n1 (stereo not given) gave LdMetRS: 14.24%; Mtb heat-shock: -6.144%. CN(C)C(=O)COC[C@]12COC[C@H]1CN(C1CCCC1)C2 read LdMetRS: 12.4%. CCCNc1ncc(CN2CCC3(CC2)CNC(=O)C3)cn1 read LdMetRS: 4.53%; Mtb heat-shock: -15.22%. For COc1ncccc1C(=O)N1CCCC1c1c(C)n[nH]c1C (stereo not given) the result was LdMetRS: -11.81%; Mtb heat-shock: 12.23%. N#Cc1cccnc1NCc1cccnc1N1CCCCC1 gave LdMetRS: 11.15%; Mtb heat-shock: -7.876%.

Cc1noc(-c2ccc(N(C)Cc3ccncn3)nc2)n1 read LdMetRS: 13.6%; Mtb heat-shock: -75.75%. COc1ccnc(NC(=O)c2ccsc2)c1 read LdMetRS: 19.23%; Mtb heat-shock: 9.434%. CCc1ccsc1C(=O)N(C)CCc1ccncc1 gave LdMetRS: 5.861%; Mtb heat-shock: -0.7342%. CCN(CC)CC1CN(CCc2ccccc2)Cc2nccn2C1 (stereo not given) read LdMetRS: 18.5%. With CC(C)CC(=O)N(C)Cc1nc(C(F)(F)F)cs1 the screen gave LdMetRS: 16.91%; Mtb heat-shock: 12.04%. Result for Cc1cc(N2CCOC(c3ccncn3)C2)ncn1 (stereo not given) was LdMetRS: 8.924%; Mtb heat-shock: -2.455%. With O=C(Cc1ccccn1)N1CCC2(CCCN(CC3CCOCC3)C2)C1 (stereo not given) the screen gave LdMetRS: 5.842%; Mtb heat-shock: 1.008%.

For Cc1cccc(OC2CCN(C(=O)Cn3ccc4ccccc43)CC2)n1 the result was LdMetRS: 15.11%; Mtb heat-shock: 9.19%. With CN1CCN(c2ccccc2CNC(=O)Cc2cccc(F)c2)CC1 the screen gave LdMetRS: 5.415%; Mtb heat-shock: -40.59%. Result for COc1ccccc1CN1CCC(Cc2cnc(CN(C)C)cn2)CC1 was LdMetRS: 14.92%; Mtb heat-shock: 0.6201%. Result for CCN1CCN(CCC(=O)NC2CC(c3cccc(Cl)c3)C2)CC1 (stereo not given) was LdMetRS: 6.72%; Mtb heat-shock: -8.255%. Result for CNC(=O)C1(c2cnccn2)CCCN1C(=O)Cc1ccsc1 (stereo not given) was LdMetRS: 13.35%; Mtb heat-shock: 7.504%. Result for Cc1cc(C)cc(C(=O)NCCCC2(C3OCCO3)CCOCC2)c1 was LdMetRS: 10.87%; Mtb heat-shock: 18.23%. NC(=O)C1(c2cnccn2)CCCN1C(=O)Cc1ccsc1 (stereo not given) gave LdMetRS: 9.627%; Mtb heat-shock: -1.524%.

Result for CC(C)(C)c1noc(OCC(=O)NC2CCCC2)n1 was LdMetRS: 15.76%; Mtb heat-shock: 8.181%. With CC(C)N1c2sc(-c3ccsc3)nc2CC1C(=O)NC1CC1 (stereo not given) the screen gave LdMetRS: -8.271%; Mtb heat-shock: -2.603%. For O=C1CC[C@H]2CN(Cc3cccnc3)CC[C@H]2N1CCc1c[nH]cn1 the result was LdMetRS: 16.31%. CC(=O)N(Cc1ncc(C(C)C)o1)C1CCN(CCC#N)C1 (stereo not given) gave LdMetRS: 14.92%; Mtb heat-shock: 20.43%. For CCCN(Cc1nccn1C)C(=O)c1cc(C(C)C)on1 the result was LdMetRS: 16.08%; Mtb heat-shock: -15.26%.

Some entries from above, unchanged:

- CCc1ccsc1C(=O)N(C)CCc1ccncc1 : LdMetRS: 5.861%; Mtb heat-shock: -0.7342%
- CC(=O)N(Cc1ncc(C(C)C)o1)C1CCN(CCC#N)C1 (stereo not given) : LdMetRS: 14.92%; Mtb heat-shock: 20.43%

The values are deposited in ChEMBL (CHEMBL3988442, “University of Dundee, Small-Polar-MMV Screening Library” (2021)).